In PubChem BioAssay AID493014 (National Center for Advancing Translational Sciences (NCATS), 2011):
The list shows a part of the results. Shown are side measurements of this screen, not its main read-out; they come without a call. Most of these compounds were active or inconclusive in the main read-out, so they are no random draw. Potencies come from curve fits of mixed quality, noted in brackets.

Assay: qHTS Assay to Find Inhibitors of Chronic Active B-Cell Receptor Signaling
Conditions: ABC-DLBCL IkBa-CBG/CBR reporter, luminescence ratio (green luciferase fused to IkBa over red control in TMD8 lymphoma cells), 4 h
How it was run: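 Compounds up to 46 uM were incubated four hours with TMD8 cells whose green CBG68 luciferase is fused to IkappaBalpha; red CBR luminescence normalised the signal, and concentration-effect curves were fitted to fusion, red and ratio data.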

[1] = measured here: CBR red luminescence, cell number
[2] = measured here: IkBa-CBG green luminescence

| SMILES | AC50 [1] | AC50 [2] |
| --- | --- | --- |
| Cc1cc(C(=O)COC(=O)c2ccc(Br)o2)c(C)n1Cc1ccco1 | 8.91 µM [rising, partial curve, poor fit] | – |
| Cc1noc(C)c1COC(=O)/C=C/c1ccc(Cl)cc1 | 15.8 µM [rising, single point] | – |
| CSc1ccccc1C(=O)NC1CC2CCC1C2 (configuration not stated) | 6.51 µM [falling, single point] | – |
| CN(C)CCNC(=O)c1[nH]nc2c1CCc1ccccc1-2 | 25.1 µM [falling, partial curve, poor fit] | – |
| COC(=O)[C@H](Cc1ccccc1)NC(=O)NCCc1ccc(OC)cc1 | 1.26 µM [rising, full curve, poor fit] | – |
| CC(Nc1ccc(Br)cc1)C(=O)Nc1cccc(S(=O)(=O)N2CCOCC2)c1 (configuration not stated) | 16.4 µM [falling, single point] | – |
| CCOc1cccc2cc(C(=O)OCC(=O)Nc3c(C)cccc3CC)c(=O)oc12 | 11.6 µM [falling, partial curve, poor fit] | – |
| CCOc1ccc(CC(=O)Nc2c(C(N)=O)oc3ccccc23)cc1OCC | 1.03 µM [falling, full curve] | – |
| CCOC(=O)CC(=O)CSCC(=O)Nc1ccc(C)cc1 | 20.6 µM [falling, single point] | – |
| COc1ccc(C(C(=O)NC2CCCCC2)N(C(=O)c2ccco2)c2ccccc2OC)cc1 (configuration not stated) | 3.98 µM [falling, partial curve, poor fit] | – |
| COc1ccc(C2CC(=O)N3CN(c4ccccc4F)CSC3=C2C#N)cc1OC (configuration not stated) | 2.91 µM [rising, single point] | – |
| COc1ccc(Cl)cc1C(=O)Nc1ccc(Br)c(C)n1 | 35.5 µM [rising, partial curve, poor fit] | – |
| Cc1cc(Nc2cccc(Cl)c2)nc(NCc2ccccc2)n1 | 29.1 µM [falling, single point] | – |
| CC1(C)Cc2cccc(C(=O)Nc3ccc(F)cc3F)c2O1 | 20 µM [rising, partial curve, poor fit] | – |
| COc1ccc(CCNC(=O)c2ccc3c(c2)OCO3)cc1 | 11.2 µM [falling, partial curve, poor fit] | – |
| Cc1ccc(-c2cc(-c3cccc(F)c3)n[nH]2)c(O)c1 | 7.31 µM [falling, partial curve] | – |
| CN(C)C=C1C(=O)c2ccccc2C1=O | 23.1 µM [falling, single point] | – |
| C=CCc1ccccc1OCC(O)CN1CCN(C(=O)OCC)CC1 (configuration not stated) | 17.8 µM [falling, partial curve, poor fit] | – |
| Cc1cc(-c2ccc(C(C)C)c(S(=O)(=O)N3CCN(c4ccccc4)CC3)c2)on1 | 7.94 µM [rising, partial curve, poor fit] | – |
| Cc1ccc(S(=O)(=O)N2CCOCC2)cc1C(=O)N1CCN(S(=O)(=O)c2cccc(F)c2)CC1 | 5.8 µM [falling, single point] | – |
| O=C(Nc1cccc(Oc2ccc(C(=O)O)c(C(=O)O)c2)c1)c1ccc(-c2ccccc2)cc1 | 1.12 µM [falling, full curve] | – |

| SMILES | AC50 [1] | AC50 [2] |
| --- | --- | --- |
| CC(C)c1ccc(NC(=O)c2ccc(NC3=NC4CS(=O)(=O)CC4S3)cc2)cc1 (configuration not stated) | 3.98 µM [rising, full curve, poor fit] | – |
| CC(CC(=O)Nc1cccc(Cl)c1)c1ccccc1 (configuration not stated) | 1.16 µM [rising, full curve, poor fit] | – |
| O=C1OCCC1Sc1nnc(-c2ccc3c(c2)OCO3)o1 (configuration not stated) | 3.16 µM [falling, partial curve] | – |
| COc1cc(C(=O)N2CC(C)OC(C)C2)c([N+](=O)[O-])cc1OC (configuration not stated) | 0.00411 µM [rising, full curve, poor fit] | – |
| C=CCN(CC=C)S(=O)(=O)c1ccc2nc(NC(=O)C(C)C)sc2c1 | – | 23.1 µM [falling, single point] |
| Cc1noc(C)c1C(=O)N1CCN(C(=O)c2sc3cc(Cl)ccc3c2Cl)CC1 | 32.6 µM [falling, single point] | – |
| C/C(=N\NC(=O)c1ccccc1NC(=O)c1ccc(Cl)cc1)c1ccncc1 | 0.794 µM [falling, full curve] | 0.794 µM [rising, full curve, poor fit] |
| NS(=O)(=O)c1cccc(NC(=O)CSc2nc3ccccc3n2-c2ccccc2)c1 | 12.6 µM [falling, partial curve] | – |
| CCn1c(CNc2ccc(Cl)cc2)nnc1SCc1ccc(C)cc1 | 11.6 µM [falling, partial curve, poor fit] | – |
| Cc1ccc(S(=O)(=O)NC(C)(C)CSc2nncn2C)cc1 | 16.4 µM [rising, partial curve] | – |
| N#C/C(=C\c1ccc(Br)s1)C(=O)N1CCN(c2ccccc2)CC1 | 3.26 µM [rising, partial curve, poor fit] | – |
| O=C(NC(=S)N1CCN(c2ccc(Cl)cc2[N+](=O)[O-])CC1)c1cccs1 | 4.11 µM [rising, full curve, poor fit] | 4.11 µM [falling, full curve] |
| CCOC(=O)c1c(NC(=O)CSc2nnc(-c3ccncc3)n2Cc2ccco2)sc(C)c1C | 23.1 µM [falling, partial curve, poor fit] | – |
| O=C(Nc1ccc(N2CCCCC2)cc1)c1cccnc1Cl | 10.3 µM [falling, partial curve, poor fit] | – |
| COc1ccc(CNC(=O)c2csc(Cc3ccc(Cl)cc3)n2)cc1 | 15.8 µM [falling, single point] | – |
| Cc1ccccc1Nc1nc(-c2ccccc2)c(C(=O)Nc2cccnc2)s1 | 2.91 µM [falling, partial curve, poor fit] | – |
| O=C(OCc1c(-c2ccccc2)ncc2ccccc12)c1ccco1 | 29.1 µM [falling, single point] | – |
| COCCOC(=O)c1nccnc1C(=O)Nc1ccc(S(=O)(=O)N2CCOCC2)cc1 | 35.5 µM [rising, single point] | – |
| O=C(CCc1nnc2ccc(NCc3ccco3)nn12)Nc1ccccc1F | 31.6 µM [falling, single point] | – |
| O=C1c2ccccc2C(=O)N1CCC1=CCCCC1 | 0.92 µM [rising, full curve, poor fit] | – |
| CN(C)S(=O)(=O)c1ccc(C(=O)NC2CCCc3ccccc32)cc1 (configuration not stated) | 3.98 µM [falling, full curve, poor fit] | – |

| SMILES | AC50 [1] | AC50 [2] |
| --- | --- | --- |
| Cc1cc(=O)oc2cc(NC(=O)c3cc([N+](=O)[O-])ccc3N3CCOCC3)ccc12 | 22.4 µM [falling, single point] | – |
| COc1cccc(NC(=O)Nc2cc(C)ccc2OC)c1 | 3.16 µM [rising, single point] | – |
| Cc1ccccc1NC(=S)N/N=C/c1ccc(O)cc1O | 0.178 µM [falling, full curve, poor fit] | 11.2 µM [rising, single point] |
| Cc1ccc2nc(NC(=O)CSCc3ccccc3)sc2c1 | 20.6 µM [falling, partial curve, poor fit] | – |
| CCc1ccc(C2=NN(C(C)=O)C(c3ccco3)C2)cc1 (configuration not stated) | 35.5 µM [falling, single point] | – |
| Nn1c(SCC(=O)Nc2ccc(F)cc2F)nnc1C1CCCCC1 | 14.1 µM [falling, partial curve, poor fit] | – |
| O=C(NCc1ccccc1)c1ccc(C2SCC(=O)N2Cc2ccccc2)cc1 (configuration not stated) | – | 18.4 µM [rising, single point] |
| CCOC(=O)C1CCN(C2=NC(=O)/C(=C/c3ccccc3OC)S2)CC1 | 2.82 µM [falling, full curve] | – |
| CCn1cc(/C=C(\NC(=O)c2ccccc2OC)C(=O)NCCCN2CCOCC2)c2ccccc21 | 28.2 µM [falling, single point] | – |
| CC(=O)Nc1ccc(/C(C)=N/NC(=O)c2ccc(F)cc2)cc1 | 23.1 µM [falling, partial curve, poor fit] | – |
| COc1ccc2c(c1)CC/C(=C/c1ccncc1)C2=O | 20.6 µM [falling, single point] | – |
| CCc1ccc(C(=O)N/N=C(\C)c2cccnc2)s1 | 7.94 µM [falling, partial curve, poor fit] | – |
| O=C(NC(=S)N1CCCCCC1)c1ccccc1 | 17.8 µM [rising, partial curve, poor fit] | – |
| COc1ccccc1/C=C1\SC(=S)N(CCC(=O)Nc2nnc(C)s2)C1=O | 11.2 µM [falling, single point] | – |
| Cc1ccc(CNC(=O)C2CC(c3cc(C(F)(F)F)cc(C(F)(F)F)c3)=NO2)o1 (configuration not stated) | 20 µM [rising, single point] | – |
| C/C(Cn1nc([N+](=O)[O-])cc1C)=N\NC(=O)COc1ccccc1[N+](=O)[O-] | 18.4 µM [rising, partial curve] | – |
| O=C(CSC(=S)N1CCCC1)c1cc(Br)cc(Br)c1O | 35.5 µM [falling, single point] | 35.5 µM [falling, single point] |
| COc1ccccc1N1C(=O)CC(N2CCc3ccccc32)C1=O (configuration not stated) | 0.411 µM [falling, full curve, poor fit] | – |
| Cc1ccc(NC(=O)CC(C)S(=O)(=O)c2ccc3c(c2)NC(=O)CO3)c(Cl)c1 (configuration not stated) | 35.5 µM [falling, single point] | 22.4 µM [rising, partial curve, poor fit] |
| CCn1c(=N)n(CC(=O)c2ccc(Br)s2)c2ccccc21 | 1.58 µM [rising, partial curve, poor fit] | – |

Nothing new here: an excerpt of the list.

| SMILES | AC50 [1] | AC50 [2] |
| --- | --- | --- |
| Cc1ccccc1NC(=S)N/N=C/c1ccc(O)cc1O | 0.178 µM [falling, full curve, poor fit] | 11.2 µM [rising, single point] |
| Cc1ccc2nc(NC(=O)CSCc3ccccc3)sc2c1 | 20.6 µM [falling, partial curve, poor fit] | – |

Pulled one by one from above:

| SMILES | AC50 [1] | AC50 [2] |
| --- | --- | --- |
| Cc1noc(C)c1COC(=O)/C=C/c1ccc(Cl)cc1 | 15.8 µM [rising, single point] | – |
| Cc1ccc(-c2cc(-c3cccc(F)c3)n[nH]2)c(O)c1 | 7.31 µM [falling, partial curve] | – |
